Experimental data as given in patent US8101606B2, “Neurofibromin pathway modulators” (Washington University, priority 2007, dated 2012).
“Also recorded” adds a separate entry of the source. At least one compound was matched to its structure with a doubt left.

What was measured:
[1] = tested on: mTOR pathway activation (S6 phosphorylation); assay: S6 phosphorylation (mTOR pathway activation) in neurofibromin 1 deficient astrocytes, phospho-specific antibodies; type: cell-based, mouse; conditions: Nf1-/- astrocytes, concentration not given
Description: Evidence exists for direct activation of mTOR signaling by Akt as well as indirect activation of mTOR by Akt through the tuberous sclerosis complex (TSC)/Rheb pathway. Studies have shown that the mTOR activation resulting from neurofibromin loss in astrocytes can be reversed by restoring NF1-GAP activity (NF1 GRD), blocking K-RAS activity (K-RASN17), or inhibiting PI-3K activation of Akt.

[2] = tested on: neurofibromin 1^−/− (Nf1^−/−) astrocytes; assay: Proliferation of Nf1-/- astrocytes by thymidine incorporation; type: cell-based, mouse; conditions: low dose (1 nM) rapamycin
[3] = tested on: Nf1^+/+ (wild-type) astrocytes; assay: Proliferation of wild-type astrocytes by thymidine incorporation; type: cell-based, mouse; conditions: low dose (1 nM) rapamycin
ST88-14 MPNST cells = assay: MPNST cell growth in vitro, [3H]-thymidine incorporation / ST88-14-luc; type: cell-based, human; conditions: ST88-14 / ST88-14-luc cells; low doses of rapamycin (1 nM)
Rac1 = Rac1 activation (GTP-bound Rac1, PAK1-PBD affinity chromatography) in Nf1-/- astrocytes; type: cell-based, mouse; conditions: 10 nM rapamycin
NPM = NPM induction by serum or RasV12 in primary mouse embryo fibroblasts, Western blot; type: cell-based; conditions: primary MEFs, rapamycin 100 nM
Nucleophosmin (NPM) = assay: NPM expression in Nf1-/- astrocytes in vitro, immunoblot; type: cell-based, mouse; conditions: 10 nM rapamycin
[4] = tested on: murine model of optic glioma (Nf1^f/mut; GFAP-Cre); assay: NPM and P-S6 expression in murine optic glioma after treatment in vivo, immunohistochemistry; conditions: mouse optic glioma; rapamycin treatment in vivo

SMILES	S6 activation / phosphorylation (mTOR pathway activation) [1]	S6 activation / phosphorylation (mTOR pathway activation) ([1]; listed as LY)	Cell proliferation (growth advantage) ([2]; P<0.01)	Cell proliferation (growth advantage) ([2]; P<0.01, listed as Rapamycin)	Cell proliferation / growth [3]	Cell proliferation / growth ([3]; listed as Rapamycin)	MPNST cell growth in vitro (ST88-14 MPNST cells)	Rac1 hyperactivation (GTP-bound Rac1) (Rac1)	NPM induction by serum or RasV12 (NPM)	NPM expression (Nucleophosmin (NPM))	NPM expression in optic glioma [4]	P-S6 expression in optic glioma [4]
O=c1cc(N2CCOCC2)oc2c(-c3ccccc3)cccc12 [LY294002]	reversed	eliminates the increased mTOR pathway activation										
CO[C@H]1C[C@@H]2CC[C@@H](C)[C@@](O)(O2)C(=O)C(=O)N2CCCC[C@H]2C(=O)O[C@H]([C@H](C)C[C@@H]2CC[C@@H](O)[C@H](OC)C2)CC(=O)[C@H](C)/C=C(\C)[C@@H](O)[C@@H](OC)C(=O)[C@H](C)C[C@H](C)/C=C/C=C/C=C/1C [rapamycin]			completely inhibit the proliferative advantage	eliminated the neurofibromin 1^−/− (Nf1^−/−) astrocyte growth advantage	without any effect on the growth	no effect on wild-type astrocytes	effectively inhibited MPNST cell growth; also recorded: reduced cell growth	blocked Rac1 hyperactivation	sensitive	restored to wild-type levels; also recorded: inhibited	restored to wild-type levels; also recorded: decreased	decreased
